Assay [1] addresses T1, BD-OsNRAT1 (Nramp aluminum transporter 1) (rice) (UniProt Q6ZG85).
T1 sequence: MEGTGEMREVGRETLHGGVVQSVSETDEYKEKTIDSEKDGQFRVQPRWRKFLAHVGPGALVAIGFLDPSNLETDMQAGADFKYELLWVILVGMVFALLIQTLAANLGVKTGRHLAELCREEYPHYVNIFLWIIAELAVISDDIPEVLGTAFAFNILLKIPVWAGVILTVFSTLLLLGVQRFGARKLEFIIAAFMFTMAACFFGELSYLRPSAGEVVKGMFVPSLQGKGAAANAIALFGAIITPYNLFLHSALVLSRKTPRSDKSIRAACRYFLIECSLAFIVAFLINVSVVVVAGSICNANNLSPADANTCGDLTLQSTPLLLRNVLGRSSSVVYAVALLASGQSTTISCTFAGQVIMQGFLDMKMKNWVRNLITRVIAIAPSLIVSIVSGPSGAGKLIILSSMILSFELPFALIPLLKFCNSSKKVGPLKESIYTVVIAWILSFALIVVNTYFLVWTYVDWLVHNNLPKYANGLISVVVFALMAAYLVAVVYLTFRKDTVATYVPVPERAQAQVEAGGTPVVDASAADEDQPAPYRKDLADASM
Briefly: two-hybrid; BD-OsNRAT1 and AD-OsSPL1 co-transformed into Y2H Gold yeast; growth on SD/-Leu-Trp, SD/-Leu-Trp-His-Ade and SD/-Leu-Trp-His-Ade + X-α-Gal, 30°C, 3 to 5 days.

A further assay addresses T2, YNE-OsNRAT1 (rice) (UniProt Q6ZG85).
T2 sequence: T1 sequence
Briefly: split reporter; BiFC: YNE-OsNRAT1 and YCE-OsSPL1 co-infiltrated by Agrobacterium GV3101 into Nicotiana benthamiana leaves; YFP fluorescence by confocal microscopy after 48-72 h; empty YNE and YCE vectors as controls.

These are yes or no findings as the source states them, for the method shown. For some assays here: Binding seen in cells or lysates may run through a third protein. Some entries that bind do so weakly or less than the wild type. For some assays here: Where a sequence is shown, tags or fusion partners need not be part of it.

B1: AD-OsSPL1 (sphingosine-1-phosphate lyase, full-length CDS) (protein, UniProt Q52RG7 1-539)
chain: MELAMDFALRLRDAANHHLSRYEPLVLLAAPLLALLAARTLHAAAAAVADRGLRTVLLALAMTAIKLLPGVSAYINAEKRKVVDQLQSGGTSTKSTLRTELPTVGLSNQVINDLETLKARDVNWQGKCSGTVYIAGSESEGHFALINKAYSMFSHTNPLHQDVFKSVAQLEAEVVAMTAALLGIKEKSSGGQICGNMTSGGTESILLAVKTSRDYMRTKKGITKPEMIIAESAHSAYDKAAQYFNIKVRRVPVNKEFLADVKGFKRCINGNTIMMVGSAPGFPHGLIDPIEELGELASRYDICLHVDLCLGGFVLPFARKLGYPIPPFDFCVKGVTSISTDVHKYGLAPKGTSIVLYKNHEIRKHQFVAVTEWTGGLYVSPTIAGSRPGGLIAGAWAAMTSLGLNGYMENTGHIMEVSKKIQRGIEDIPGLFVIGKPDMTVVAFGSDSVDIFEVNDIMSSKGWHLNALQRPNSLHICVTLQHTVIYEEFLKDLKDSVDTVKANPGPISGGRAPIYGAAGKMPDRGMVRELLVEFMDASC
As to B1, the binding result in assay [1] is “binds”.

B2: YCE-OsSPL1 (protein, UniProt Q52RG7 47-539)
chain: AVADRGLRTVLLALAMTAIKLLPGVSAYINAEKRKVVDQLQSGGTSTKSTLRTELPTVGLSNQVINDLETLKARDVNWQGKCSGTVYIAGSESEGHFALINKAYSMFSHTNPLHQDVFKSVAQLEAEVVAMTAALLGIKEKSSGGQICGNMTSGGTESILLAVKTSRDYMRTKKGITKPEMIIAESAHSAYDKAAQYFNIKVRRVPVNKEFLADVKGFKRCINGNTIMMVGSAPGFPHGLIDPIEELGELASRYDICLHVDLCLGGFVLPFARKLGYPIPPFDFCVKGVTSISTDVHKYGLAPKGTSIVLYKNHEIRKHQFVAVTEWTGGLYVSPTIAGSRPGGLIAGAWAAMTSLGLNGYMENTGHIMEVSKKIQRGIEDIPGLFVIGKPDMTVVAFGSDSVDIFEVNDIMSSKGWHLNALQRPNSLHICVTLQHTVIYEEFLKDLKDSVDTVKANPGPISGGRAPIYGAAGKMPDRGMVRELLVEFMDASC
Consider B2, for which the binding entry in the assay with YNE-OsNRAT1 (rice) is “binds”.

The values are drawn from paper PMC12627016.
